Record: PubChem BioAssay AID1224831 (NIAID, 2016)
Aim: 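Retesting screen hits on the TLR4-driven TNF response with six separate siRNAs each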 (follow-up of hits). System: human THP-1 B5 monocytic leukaemia cells carrying a TNF promoter luciferase reporter, made macrophage-like with PMA. Reagent: single siRNA against human genes, 50 nM. Timing: about 68 h of knock-down, then 4 h LPS. Treatment: LPS (Salmonella minnesota, TLR-grade) at 10 ng/ml for 4 h; PMA 5 ng/ml present during knock-down. Measurement: 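TNF promoter reporter read as dual luciferase ratio after 4 h LPS, normalised per plate to its median, given as replicate mean robust z-score per siRNA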. Scale: TNF reporter z-score: higher = stronger LPS-induced TNF reporter signal; z-score, median over gene's siRNAs: higher = stronger TNF reporter signal across the gene's siRNAs. Call rule: 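Active when the replicate mean z-score is about -1 or lower, or about 1.5 or higher; lowered and raised TNF reporter signal both count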. Calls: active = changed TNF reporter (either direction); inactive = little change.
Shown is an unselected part of about 3,500 reagents tested. In the full data, 731 (21%) got an active call. 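Active means either lowered or raised reporter signal; the gene-median score did not drive the per-siRNA calls.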 Entries without a mark were called inactive. The numbers tell different reagents against one gene apart.

no.	target	reagent no.	TNF reporter z-score, replicate mean	z-score, median over gene's siRNAs
1	SMARCA1 (SNF2 related chromatin remodeling ATPase 1)	1	-0.02	0.005
2	SMARCA1 (SNF2 related chromatin remodeling ATPase 1)	2	0.4	0.005
3	SMARCA1 (SNF2 related chromatin remodeling ATPase 1)	3	1.57 (active)	0.005
4	SMARCA1 (SNF2 related chromatin remodeling ATPase 1)	4	-1.48 (active)	0.005
5	SMARCA1 (SNF2 related chromatin remodeling ATPase 1)	5	-1.71 (active)	0.005
6	SMARCA1 (SNF2 related chromatin remodeling ATPase 1)	6	0.03	0.005
7	RPL7L1 (ribosomal protein L7 like 1)	1	-0.05	-0.49
8	RPL7L1 (ribosomal protein L7 like 1)	2	1.47	-0.49
9	RPL7L1 (ribosomal protein L7 like 1)	3	-0.64	-0.49
10	RPL7L1 (ribosomal protein L7 like 1)	4	-0.35	-0.49
11	RPL7L1 (ribosomal protein L7 like 1)	5	-1.49 (active)	-0.49
12	RPL7L1 (ribosomal protein L7 like 1)	6	-0.63	-0.49
13	TASOR (transcription activation suppressor)	1	1.6 (active)	1.12
14	TASOR (transcription activation suppressor)	2	1.12	1.12
15	TASOR (transcription activation suppressor)	3	1.12	1.12
16	TASOR (transcription activation suppressor)	4	1.78 (active)	1.12
17	TASOR (transcription activation suppressor)	5	0.12	1.12
18	TASOR (transcription activation suppressor)	6	-1.65 (active)	1.12
19	NELFA (negative elongation factor complex member A)	1	0.76	0.71
20	NELFA (negative elongation factor complex member A)	2	1.17	0.71
21	NELFA (negative elongation factor complex member A)	3	0.34	0.71
22	NELFA (negative elongation factor complex member A)	4	-0.02	0.71
23	NELFA (negative elongation factor complex member A)	5	0.66	0.71
24	NELFA (negative elongation factor complex member A)	6	1	0.71
25	SLC16A10	1	2.15 (active)	0.45
26	SLC16A10	2	0.59	0.45
27	SLC16A10	3	-0.18	0.45
28	SLC16A10	4	2.03 (active)	0.45
29	SLC16A10	5	0.31	0.45
30	SLC16A10	6	-0.14	0.45
31	MBD3 (methyl-CpG binding domain protein 3)	1	1.55 (active)	0.255
32	MBD3 (methyl-CpG binding domain protein 3)	2	0.26	0.255
33	MBD3 (methyl-CpG binding domain protein 3)	3	-0.31	0.255
34	MBD3 (methyl-CpG binding domain protein 3)	4	0.25	0.255
35	MBD3 (methyl-CpG binding domain protein 3)	5	-1.92 (active)	0.255
36	MBD3 (methyl-CpG binding domain protein 3)	6	1.12	0.255

5 successive reagents already listed:
no.	target	reagent no.	TNF reporter z-score, replicate mean	z-score, median over gene's siRNAs
14	TASOR (transcription activation suppressor)	2	1.12	1.12
15	TASOR (transcription activation suppressor)	3	1.12	1.12
16	TASOR (transcription activation suppressor)	4	1.78 (active)	1.12
17	TASOR (transcription activation suppressor)	5	0.12	1.12
18	TASOR (transcription activation suppressor)	6	-1.65 (active)	1.12

Additional reagents follow.
no.	target	reagent no.	TNF reporter z-score, replicate mean	z-score, median over gene's siRNAs
37	PMP2 (peripheral myelin protein 2)	1	0.67	0.28
38	PMP2 (peripheral myelin protein 2)	2	0.27	0.28
39	PMP2 (peripheral myelin protein 2)	3	-1.4 (active)	0.28
40	PMP2 (peripheral myelin protein 2)	4	-0.49	0.28
41	PMP2 (peripheral myelin protein 2)	5	0.29	0.28
42	PMP2 (peripheral myelin protein 2)	6	0.34	0.28
43	RERE (arginine-glutamic acid dipeptide repeats)	1	1.08	0.22
44	RERE (arginine-glutamic acid dipeptide repeats)	2	-0.64	0.22
45	RERE (arginine-glutamic acid dipeptide repeats)	3	1.32	0.22
46	RERE (arginine-glutamic acid dipeptide repeats)	4	-1.85 (active)	0.22
47	RERE (arginine-glutamic acid dipeptide repeats)	5	1.35	0.22
48	RERE (arginine-glutamic acid dipeptide repeats)	6	-0.83	0.22
49	LHX2 (LIM homeobox 2)	1	0.77	0.24
50	LHX2 (LIM homeobox 2)	2	0.23	0.24
51	LHX2 (LIM homeobox 2)	3	-0.83	0.24
52	LHX2 (LIM homeobox 2)	4	5.03 (active)	0.24
53	LHX2 (LIM homeobox 2)	5	-0.28	0.24
54	LHX2 (LIM homeobox 2)	6	0.25	0.24
55	CREB1 (cAMP responsive element binding protein 1)	1	-2 (active)	0.02
56	CREB1 (cAMP responsive element binding protein 1)	2	0.67	0.02
57	CREB1 (cAMP responsive element binding protein 1)	3	0.08	0.02
58	CREB1 (cAMP responsive element binding protein 1)	4	-0.04	0.02
59	CREB1 (cAMP responsive element binding protein 1)	5	-0.36	0.02
60	CREB1 (cAMP responsive element binding protein 1)	6	2.64 (active)	0.02
61	PDXK (pyridoxal kinase)	1	0.18	-0.49
62	PDXK (pyridoxal kinase)	2	0.49	-0.49
63	PDXK (pyridoxal kinase)	3	-1.44 (active)	-0.49
64	PDXK (pyridoxal kinase)	4	-1.16 (active)	-0.49
65	PDXK (pyridoxal kinase)	5	-1.4 (active)	-0.49
66	PDXK (pyridoxal kinase)	6	0.33	-0.49
67	CCDC12 (coiled-coil domain containing 12)	1	0.34	0.285
68	CCDC12 (coiled-coil domain containing 12)	2	0.23	0.285
69	CCDC12 (coiled-coil domain containing 12)	3	-0.45	0.285
70	CCDC12 (coiled-coil domain containing 12)	4	-0.06	0.285
71	CCDC12 (coiled-coil domain containing 12)	5	0.7	0.285
72	CCDC12 (coiled-coil domain containing 12)	6	1.45	0.285
73	ZIK1 (zinc finger protein interacting with K protein 1)	1	-0.74	0.3
74	ZIK1 (zinc finger protein interacting with K protein 1)	2	0.1	0.3
75	ZIK1 (zinc finger protein interacting with K protein 1)	3	-0.62	0.3
76	ZIK1 (zinc finger protein interacting with K protein 1)	4	1.31	0.3
77	ZIK1 (zinc finger protein interacting with K protein 1)	5	1.12	0.3
78	ZIK1 (zinc finger protein interacting with K protein 1)	6	0.5	0.3
79	MAD1L1 (mitotic arrest deficient 1 like 1)	1	0.06	0.28
80	MAD1L1 (mitotic arrest deficient 1 like 1)	2	1.03	0.28
81	MAD1L1 (mitotic arrest deficient 1 like 1)	3	-1.06 (active)	0.28
82	MAD1L1 (mitotic arrest deficient 1 like 1)	4	0.61	0.28
83	MAD1L1 (mitotic arrest deficient 1 like 1)	5	-0.14	0.28
84	MAD1L1 (mitotic arrest deficient 1 like 1)	6	0.5	0.28
